Reference: PubChem BioAssay AID1259254 (NCATS, 2017)
Assay: 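Gene knock-downs that lead to re-replication, shown by excess G2 DNA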 (primary screen). System: human HCT116 colorectal cancer cells. Reagent: single siRNA against human genes. Duration: 3 days. Read-out: 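Imaged Hoechst DNA stain sorts each cell into a cycle phase by DNA amount; per plate, G2 fraction set to 0% for non-targeting and 100% for GMNN siRNA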. Reading the numbers: G2 robust z-score: higher = more G2 cells, more excess DNA replication. Rule for the call: 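Active siRNAs have a G2 robust z of 5 or more median absolute deviations over the median, which in these data means about 38% or higher of GMNN control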.
This is a random part of about 59,000 deposited reagents. Over the whole deposit, about 1,550 (2.6%) were called active. 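G2 share is only a proxy for re-replication; each gene was hit by three separate siRNAs, and active genes were retested.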 The numbers tell different reagents against one gene apart. Not all columns of the deposit are shown. Not given: the amount of reagent.

Target gene | reagent | G2 robust z-score | Call
ARHGEF39 (Rho guanine nucleotide exchange factor 39) | 1 | 0.0678 | inactive
ARHGEF39 (Rho guanine nucleotide exchange factor 39) | 2 | 0.381 | inactive
ARHGEF39 (Rho guanine nucleotide exchange factor 39) | 3 | 0.356 | inactive
MAGEB17 (MAGE family member B17) | 1 | 1.48 | inactive
MAGEB17 (MAGE family member B17) | 2 | 3.28 | inactive
MAGEB17 (MAGE family member B17) | 3 | 0.904 | inactive
ZFAND6 (zinc finger AN1-type containing 6) | 1 | -0.928 | inactive
ZFAND6 (zinc finger AN1-type containing 6) | 2 | -0.774 | inactive
ZFAND6 (zinc finger AN1-type containing 6) | 3 | 0.455 | inactive
MAGEA5P (MAGE family member A5, pseudogene) | 1 | -0.199 | inactive
MAGEA5P (MAGE family member A5, pseudogene) | 2 | -0.368 | inactive
MAGEA5P (MAGE family member A5, pseudogene) | 3 | -0.453 | inactive
ASAH2 (N-acylsphingosine amidohydrolase 2) | 1 | -0.695 | inactive
ASAH2 (N-acylsphingosine amidohydrolase 2) | 2 | -1.11 | inactive
ASAH2 (N-acylsphingosine amidohydrolase 2) | 3 | -0.405 | inactive
LOC284912 | 1 | -0.478 | inactive
LOC284912 | 2 | -0.025 | inactive
LOC284912 | 3 | -0.857 | inactive
OSBP (oxysterol binding protein) | 1 | 0.979 | inactive
OSBP (oxysterol binding protein) | 2 | 0.692 | inactive
OSBP (oxysterol binding protein) | 3 | 0.0112 | inactive
KAZN (kazrin, periplakin interacting protein) | 1 | 0.115 | inactive
KAZN (kazrin, periplakin interacting protein) | 2 | 4.26 | inactive
KAZN (kazrin, periplakin interacting protein) | 3 | 2.09 | inactive
KAZN (kazrin, periplakin interacting protein) | 4 | 0.497 | inactive
KAZN (kazrin, periplakin interacting protein) | 5 | -0.298 | inactive
KAZN (kazrin, periplakin interacting protein) | 6 | 1.52 | inactive
CUL7 (cullin 7) | 1 | -0.141 | inactive
CUL7 (cullin 7) | 2 | 1.05 | inactive
CUL7 (cullin 7) | 3 | 0.572 | inactive
POU2AF1 (POU class 2 homeobox associating factor 1) | 1 | 0.338 | inactive
POU2AF1 (POU class 2 homeobox associating factor 1) | 2 | -1.06 | inactive
POU2AF1 (POU class 2 homeobox associating factor 1) | 3 | -0.0798 | inactive
OR52A4P (olfactory receptor family 52 subfamily A member 4 pseudogene) | 1 | 0.621 | inactive
OR52A4P (olfactory receptor family 52 subfamily A member 4 pseudogene) | 2 | 0.325 | inactive
OR52A4P (olfactory receptor family 52 subfamily A member 4 pseudogene) | 3 | -0.517 | inactive
CALCRL (calcitonin receptor like receptor) | 1 | -0.648 | inactive
CALCRL (calcitonin receptor like receptor) | 2 | -0.101 | inactive
CALCRL (calcitonin receptor like receptor) | 3 | 6.02 | active
OR2H1 (olfactory receptor family 2 subfamily H member 1) | 1 | -0.947 | inactive
OR2H1 (olfactory receptor family 2 subfamily H member 1) | 2 | 1.15 | inactive
OR2H1 (olfactory receptor family 2 subfamily H member 1) | 3 | 0.647 | inactive
PAGE3 (PAGE family member 3) | 1 | 3.12 | inactive
PAGE3 (PAGE family member 3) | 2 | 1.1 | inactive
PAGE3 (PAGE family member 3) | 3 | -0.535 | inactive
CCDC17 (coiled-coil domain containing 17) | 1 | 0.00725 | inactive
CCDC17 (coiled-coil domain containing 17) | 2 | 0.64 | inactive
CCDC17 (coiled-coil domain containing 17) | 3 | 0.418 | inactive
DRC10 (dynein regulatory complex subunit 10) | 1 | 0.381 | inactive
DRC10 (dynein regulatory complex subunit 10) | 2 | -0.84 | inactive
DRC10 (dynein regulatory complex subunit 10) | 3 | -0.955 | inactive
COLCA1 (colorectal cancer associated 1) | 1 | 3.92 | inactive
COLCA1 (colorectal cancer associated 1) | 2 | 0.847 | inactive
COLCA1 (colorectal cancer associated 1) | 3 | 0.311 | inactive
PAX8 (paired box 8) | 1 | -0.55 | inactive
PAX8 (paired box 8) | 2 | -0.532 | inactive
PAX8 (paired box 8) | 3 | 0.187 | inactive

Laid out differently: results already given.
{"Target gene":"MAGEA5P (MAGE family member A5, pseudogene)","reagent":2,"G2 robust z-score":-0.368,"Call":"inactive"}
{"Target gene":"MAGEA5P (MAGE family member A5, pseudogene)","reagent":3,"G2 robust z-score":-0.453,"Call":"inactive"}
{"Target gene":"ASAH2 (N-acylsphingosine amidohydrolase 2)","reagent":1,"G2 robust z-score":-0.695,"Call":"inactive"}
{"Target gene":"ASAH2 (N-acylsphingosine amidohydrolase 2)","reagent":2,"G2 robust z-score":-1.11,"Call":"inactive"}
{"Target gene":"ASAH2 (N-acylsphingosine amidohydrolase 2)","reagent":3,"G2 robust z-score":-0.405,"Call":"inactive"}

The results go on.
Target gene | reagent | G2 robust z-score | Call
GCSH (glycine cleavage system protein H) | 1 | 0.182 | inactive
GCSH (glycine cleavage system protein H) | 2 | 2.68 | inactive
GCSH (glycine cleavage system protein H) | 3 | 3.37 | inactive
GABRD (gamma-aminobutyric acid type A receptor subunit delta) | 1 | -0.737 | inactive
GABRD (gamma-aminobutyric acid type A receptor subunit delta) | 2 | -0.563 | inactive
GABRD (gamma-aminobutyric acid type A receptor subunit delta) | 3 | 6.39 | active
NAB2 (NGFI-A binding protein 2) | 1 | -0.0658 | inactive
NAB2 (NGFI-A binding protein 2) | 2 | 0.0305 | inactive
NAB2 (NGFI-A binding protein 2) | 3 | 0.551 | inactive
SDCCAG8 (SHH signaling and ciliogenesis regulator SDCCAG8) | 1 | 0.251 | inactive
SDCCAG8 (SHH signaling and ciliogenesis regulator SDCCAG8) | 2 | 0.161 | inactive
SDCCAG8 (SHH signaling and ciliogenesis regulator SDCCAG8) | 3 | 2.83 | inactive
SLC1A3 | 1 | 3.45 | inactive
SLC1A3 | 2 | 0.305 | inactive
SLC1A3 | 3 | 6.99 | active
PSMC3IP (PSMC3 interacting protein) | 1 | -1.12 | inactive
PSMC3IP (PSMC3 interacting protein) | 2 | 3.06 | inactive
PSMC3IP (PSMC3 interacting protein) | 3 | -0.819 | inactive
OGG1 (8-oxoguanine DNA glycosylase) | 1 | 0.173 | inactive
OGG1 (8-oxoguanine DNA glycosylase) | 2 | -0.408 | inactive
OGG1 (8-oxoguanine DNA glycosylase) | 3 | 0.514 | inactive
BBS1 (Bardet-Biedl syndrome 1) | 1 | 0.015 | inactive
BBS1 (Bardet-Biedl syndrome 1) | 2 | 4.34 | inactive
BBS1 (Bardet-Biedl syndrome 1) | 3 | -1.11 | inactive
MTA2 (metastasis associated 1 family member 2) | 1 | -0.346 | inactive
MTA2 (metastasis associated 1 family member 2) | 2 | -0.561 | inactive
MTA2 (metastasis associated 1 family member 2) | 3 | -0.673 | inactive
SCNN1D (sodium channel epithelial 1 subunit delta) | 1 | 1.65 | inactive
SCNN1D (sodium channel epithelial 1 subunit delta) | 2 | 1.15 | inactive
SCNN1D (sodium channel epithelial 1 subunit delta) | 3 | -0.174 | inactive
